Experimental findings from paper doi:10.1101/2023.11.13.566796 are described below.

Amino acid sequences for entries named in this document (tags omitted).
UniProt Q00944: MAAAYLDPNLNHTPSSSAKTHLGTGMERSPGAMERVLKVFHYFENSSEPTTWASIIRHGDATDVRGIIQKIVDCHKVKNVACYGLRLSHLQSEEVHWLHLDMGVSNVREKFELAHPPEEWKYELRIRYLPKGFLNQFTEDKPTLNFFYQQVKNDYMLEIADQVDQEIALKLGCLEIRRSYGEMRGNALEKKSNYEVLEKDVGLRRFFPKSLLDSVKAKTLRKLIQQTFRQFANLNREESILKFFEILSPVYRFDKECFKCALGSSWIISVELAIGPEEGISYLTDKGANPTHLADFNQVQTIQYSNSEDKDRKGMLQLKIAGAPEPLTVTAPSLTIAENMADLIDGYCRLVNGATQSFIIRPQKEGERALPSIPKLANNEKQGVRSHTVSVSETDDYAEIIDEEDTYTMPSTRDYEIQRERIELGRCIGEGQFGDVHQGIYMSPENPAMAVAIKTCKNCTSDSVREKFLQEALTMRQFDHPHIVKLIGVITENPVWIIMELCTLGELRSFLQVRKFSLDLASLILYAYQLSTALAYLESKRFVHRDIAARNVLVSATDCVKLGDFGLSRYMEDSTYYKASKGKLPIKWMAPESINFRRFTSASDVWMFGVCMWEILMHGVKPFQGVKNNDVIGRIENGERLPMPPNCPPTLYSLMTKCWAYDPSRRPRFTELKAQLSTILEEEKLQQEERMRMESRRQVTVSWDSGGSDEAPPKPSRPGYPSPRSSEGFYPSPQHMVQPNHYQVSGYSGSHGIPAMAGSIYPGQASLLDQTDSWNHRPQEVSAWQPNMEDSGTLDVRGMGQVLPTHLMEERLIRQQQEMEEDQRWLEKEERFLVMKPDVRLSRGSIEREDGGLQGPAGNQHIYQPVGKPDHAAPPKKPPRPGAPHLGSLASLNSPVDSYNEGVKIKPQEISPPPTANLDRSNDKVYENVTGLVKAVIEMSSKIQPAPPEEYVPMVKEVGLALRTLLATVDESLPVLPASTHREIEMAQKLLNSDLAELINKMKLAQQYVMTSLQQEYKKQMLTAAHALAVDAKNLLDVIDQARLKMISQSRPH
UniProt P49024: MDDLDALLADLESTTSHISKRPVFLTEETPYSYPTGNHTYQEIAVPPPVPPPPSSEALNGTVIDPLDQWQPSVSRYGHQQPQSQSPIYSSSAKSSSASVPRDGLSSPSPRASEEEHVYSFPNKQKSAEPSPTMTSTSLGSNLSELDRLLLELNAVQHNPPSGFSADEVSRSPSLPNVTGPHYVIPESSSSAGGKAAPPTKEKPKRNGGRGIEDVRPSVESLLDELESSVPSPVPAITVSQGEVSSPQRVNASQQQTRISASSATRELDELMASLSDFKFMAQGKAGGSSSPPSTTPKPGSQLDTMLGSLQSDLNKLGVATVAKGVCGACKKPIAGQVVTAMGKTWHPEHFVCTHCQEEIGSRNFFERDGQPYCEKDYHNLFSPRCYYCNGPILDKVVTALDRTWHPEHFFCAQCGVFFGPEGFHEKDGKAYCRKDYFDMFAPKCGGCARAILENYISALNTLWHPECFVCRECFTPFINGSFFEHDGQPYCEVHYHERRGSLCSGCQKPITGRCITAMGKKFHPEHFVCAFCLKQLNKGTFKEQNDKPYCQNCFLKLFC

No constants are given. Whether binding was seen depends on the method and setting. Binding seen in cells or lysates may run through a third protein. Some binding calls cover weakened binding; strength is not graded here. Tags and fused reporters may be left off the sequences shown.

Common to all, as to test: co-IP
One test concerns the target GFP-FAK (Gallus gallus) (UniProt Q00944).
The next test deals with GFP-paxillin (UniProt P49024).
Test [1] concerns the target T1, HA-tagged full-length BNIP-2 (human) (UniProt Q12982).
T1 sequence: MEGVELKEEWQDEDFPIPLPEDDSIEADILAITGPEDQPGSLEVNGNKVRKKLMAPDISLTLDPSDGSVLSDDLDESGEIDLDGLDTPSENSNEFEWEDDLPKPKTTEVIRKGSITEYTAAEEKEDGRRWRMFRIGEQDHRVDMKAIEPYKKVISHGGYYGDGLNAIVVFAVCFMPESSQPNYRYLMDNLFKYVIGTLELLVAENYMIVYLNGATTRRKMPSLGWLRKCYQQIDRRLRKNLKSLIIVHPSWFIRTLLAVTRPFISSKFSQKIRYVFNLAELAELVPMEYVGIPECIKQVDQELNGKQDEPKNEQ

B1: FLAG-BNIP-2 (protein, UniProt Q12982 1-314)
chain: T1 sequence
Turning to B1, the binding entry with GFP-FAK (Gallus gallus) and with GFP-paxillin was “binds” throughout.

B2: GFP-BNIP-2-cBCH (domain or fragment, UniProt Q12982 126-314)
chain: DGRRWRMFRIGEQDHRVDMKAIEPYKKVISHGGYYGDGLNAIVVFAVCFMPESSQPNYRYLMDNLFKYVIGTLELLVAENYMIVYLNGATTRRKMPSLGWLRKCYQQIDRRLRKNLKSLIIVHPSWFIRTLLAVTRPFISSKFSQKIRYVFNLAELAELVPMEYVGIPECIKQVDQELNGKQDEPKNEQ
In the case of B2, the binding result in test [1] is reported as “binds”.
